Test results taken from patent publication US8409577.
Results are given in words; binding and its absence hold for the method and conditions named. Some binding calls cover weakened binding; strength is not graded here.

Amino acid sequences for entries named in this document (tags omitted). A change or cut given only in a name is not applied to a line headed by its entry. Residues count along the entry.
UniProt P10747: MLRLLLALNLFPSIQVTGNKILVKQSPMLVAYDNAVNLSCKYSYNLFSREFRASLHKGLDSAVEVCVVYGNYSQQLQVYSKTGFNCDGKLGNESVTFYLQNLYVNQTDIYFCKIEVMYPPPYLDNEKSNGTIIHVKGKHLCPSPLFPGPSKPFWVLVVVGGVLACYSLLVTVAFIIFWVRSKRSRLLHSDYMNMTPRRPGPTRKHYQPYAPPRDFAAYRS
CD28 on CHO cells: residues 19-220 of P10747
CD28mIgG: residues 19-152 of P10747

Tests used:
[1] = molecular target: CD28 on CHO cells (UniProt P10747); test: flow cytometry, CD28 CHO cells, purified protein at 5 µg/ml
[2] = molecular target: CD28mIgG (UniProt P10747); test: Western blot, non-reduced, probed with CD28-murine IgG and goat anti-mouse HRP
[3] = molecular target: CD28 on CHO cells (UniProt P10747); test: flow cytometry, COS supernatants on CD28 CHO cells, FITC goat anti-human IgG 1:100
[4] = molecular target: CD28 on CHO cells (UniProt P10747); test: flow cytometry, protein A purified protein at 5 ug/mL on CD28 CHO cells, FITC goat anti-human IgG 1:100
[5] = molecular target: CD28 on CHO cells (UniProt P10747); test: flow cytometry, CD28 CHO cells, protein A purified protein at 0.72 ug/mL, FITC goat anti-human IgG 1:100

Measured: binding

B1: 2E12IgG-VHVL SMIP (Fc fusion, not shown: a dimerising Fc or GST)
chain: VQVQLKESGPGLVAPSQSLSITCTVSGFSLTGYGVNWVRQPPGKGLEWLGMIWGDGSTDYNSALKSRLSITKDNSKSQVFLKMNSLQTDDTARYYCARDGYSNFHYYVMDYWGQGTSVTVSSGGGGSGGGGSGGGGSGGGGSDIVLTQSPASLAVSLGQRATISCRASESVEYYVTSLMQWYQQKPGQPPKLLISAASNVESGVPARFSGSGSGTDFSLNIHPVEEDDIAMYFCQQSRKVPWTFGGGTKLEIKR
binds: [1] | [2] | [3] | [4] | [5]
